# The whole screen tested about 220,000 compounds, of which about 2,400 (1.1%) were called active. This list was built around the results that the source calls inconclusive (neither active nor inactive); the mix of calls is not that of the screen. Calls come from the whole dose curve; as a rule, active = well fitted inhibition curve with a large enough effect; inconclusive = small, poorly fitted or top-dose-only effect, or effect the other way; inactive = no such curve, though single readings can be large or run the other way. Where the call is inconclusive, the potency comes from a doubtful curve fit.
# Experiment: qHTS Multiplex Assay to Identify Dual Action Probes in a Cell Model of Huntington: Aggregate Formation (GFP); note: nearly all actives have a fitted effect of over 60% in size
# Conditions: PC12 HttQ103-GFP aggregates, Acumen cytometry, 40 h; activity change, negative = inhibition: at 46.1 µM (top of the series) unless noted
# In short: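 Read-out: GFP aggregate count by laser scanning cytometer (488 nm excitation, 500-530 nm emission, 1–25 µm objects >6 SD above background). Cells: PC12, inducible HTTex1-Q103-GFP, 100 nM tebufenozide; compounds titrated.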
# % is set by controls: 0 for no effect and ±100 for the full control effect; potency is the fitted concentration of half-maximal effect.
Structure (SMILES),"activity change, negative = inhibition",Potency
O=C(N/N=C/c1ccc(F)cc1)c1ccc(Br)cc1,inactive: -6.93%,–
COc1ccc2c(c1)CCc1c(C(=O)N3CC4(C)CC3CC(C)(C)C4)noc1-2 (stereo unspecified),–,"inconclusive: 25.1 µM [inhibitor, single point]"
Brc1ccc(N/N=C(/N=Nc2nn[nH]n2)c2ccccc2)cc1,–,active: 7.08 µM
CC(=O)OC[C@H]1O[C@@H](Sc2cccc3cccnc23)[C@H](OC(C)=O)[C@@H](OC(C)=O)[C@H]1OC(C)=O,inactive: 2.31%,–
C/C(=N\N=C(/N)SC1CC(=O)N(c2cccc(Cl)c2)C1=O)c1cccs1 (stereo unspecified),–,"inconclusive: 35.5 µM [inhibitor, single point]"
CC(NC(=O)c1ccccc1)c1ccc(Br)cc1 (stereo unspecified),inactive: -0.174%,–
COc1ccc(N(CCCN2C(=O)c3cccc4cccc(c34)C2=O)C(=O)c2cccc(OC)c2)cc1,inactive: -12.2%,–
C=CCNC(=O)c1ccccc1NC(=O)c1ccc(Cl)c(S(=O)(=O)Nc2ccccc2)c1,–,"inconclusive: 31.6 µM [inhibitor, single point]"
Cc1ccc(-n2cc(-c3ccccc3)c3c(=O)[nH]cnc32)cc1,–,"inconclusive: 10 µM [inhibitor, partial curve]"
Cc1nc(N2CCC(C(N)=O)CC2)c2nnn(Cc3ccccc3)c2n1,inactive: -9.85%,–
O=C(CN1CCCCC1)Nc1ccccc1-c1ccccc1,inactive: -2.91%,–
O=C(Nc1ccc(N2CCCCC2)cc1)c1ccccn1,–,"inconclusive: 35.5 µM [activator, single point]"
CCOC(=O)c1c(NC(=O)C2=C(C)NC(=S)NC2c2ccc(C)cc2)sc(C)c1C (stereo unspecified),inactive: 2.18%,–
COc1ccc(S(=O)(=O)NN=C2CCCC2)cc1,inactive: 15.6%,–
Cc1ccc2[nH]c(=O)c3cc(C(=O)N4CCN(C(=O)c5ccco5)CC4)sc3c2c1,–,"inconclusive: 20 µM [activator, partial curve, poor fit]"
C(=N\NC1=Nc2cccc3cccc1c23)/c1ccccn1,–,"inconclusive: 5.62 µM [inhibitor, single point]"
CCOc1ccc(NC(=O)Nc2cc(C)ccc2OC)cc1,–,"inconclusive: 35.5 µM [inhibitor, partial curve, poor fit]"
Cc1nc(-c2cccc(S(=O)(=O)N3CC(C)CC(C)C3)c2)cs1 (stereo unspecified),–,"inconclusive: 12.6 µM [inhibitor, single point]"
CCOC(=O)C1CCN(C(=O)Cc2cccs2)CC1,inactive: -15.6%,–
COc1ccc(NS(=O)(=O)c2ccc3nc(COc4cccc5ccccc45)[nH]c3c2)cc1,–,"inconclusive: 6.31 µM [inhibitor, full curve]"
COc1ccc(S(=O)(=O)N2CCC(C(=O)Nc3ccccc3C)CC2)c2cccnc12,inactive: -2.47% [at 9.22 µM],–
COc1cc(C2c3c(oc4ccccc4c3=O)C(=O)N2Cc2ccncc2)ccc1O (stereo unspecified),inactive: 2.3%,–
CC(=O)N/N=C/c1cc(C(C)(C)C)cc(/C=N/NC(C)=O)c1O,inactive: 9.58% [at 9.22 µM],–
O=C(CN1CCN(c2ccc(O)cc2)CC1)NC(=O)NCc1ccco1,–,"inconclusive: 0.447 µM [inhibitor, partial curve]"

Structure (SMILES),"activity change, negative = inhibition",Potency
Cc1ccccc1C(=O)N1CCN(c2ccc(NC(=O)c3ccco3)cc2Cl)CC1,–,active: 12.6 µM
Cc1c(NC(=S)N/C(=N/S(=O)(=O)c2ccc(Cl)cc2)c2ccccc2)c(=O)n(-c2ccccc2)n1C,inactive: 20.2% [at 9.22 µM],–
COc1ccc(N2CC(C(=O)OCC(=O)c3ccccc3)CC2=O)cc1 (stereo unspecified),–,"inconclusive: 0.708 µM [inhibitor, full curve, poor fit]"
O=C(Nc1ccc2ncccc2c1)c1cc(Cl)ccc1Cl,–,"inconclusive: 35.5 µM [inhibitor, single point]"
C=CCC(O)(CC=C)C(C)N (stereo unspecified),inactive: 6.25% [at 9.22 µM],–
COc1ccccc1C(=O)Oc1cc(N)n(S(=O)(=O)c2ccc(C)cc2)n1,–,"inconclusive: 14.1 µM [activator, partial curve, poor fit]"
C/C(=N\OC(=O)c1ccc(C)cc1)c1c(C)nc2cc(C)ccn12,–,"inconclusive: 0.447 µM [inhibitor, single point]"
C=C1C(=O)O[C@@H]2[C@H]1[C@@H](OC(=O)/C(C)=C/C)C/C(C)=C\C(=O)/C=C(\C)[C@@H]2O,–,"inconclusive: 5.62 µM [inhibitor, single point]"
CC(=O)N1CCc2cc(S(=O)(=O)NCCC(=O)N3CCc4ccccc4C3)ccc21,–,"inconclusive: 14.1 µM [inhibitor, single point]"
Nc1nc2c(ncn2COC(CO)CO)c(=O)[nH]1,–,inactive
Cc1ccc(C(C)C)c(OCc2ccc(C(=O)N/N=C/c3ccc(O)cc3O)cc2)c1,–,"inconclusive: 2.24 µM [inhibitor, partial curve, poor fit]"
Cc1ccc(S(=O)(=O)Nc2ccc(O)c3ncccc23)cc1,–,"inconclusive: 35.5 µM [inhibitor, single point]"
Cc1onc(-c2ccccc2)c1C(=O)NNC(=S)NC(=O)/C=C/c1cccs1,–,"inconclusive: 20 µM [inhibitor, single point]"
CCn1c(SC(C)C(=O)O)nc2sc3c(c2c1=O)CCC3 (stereo unspecified),inactive: 5.9%,–
COc1cc(OC)cc(C(=O)Nc2nc(-c3ccccc3)c(-c3ccccc3)o2)c1,–,"inconclusive: 2.24 µM [inhibitor, partial curve, poor fit]"
O=C(COc1ccc(/C=N/NC(=O)C(=O)N2CCCCCC2)cc1)Nc1ccccc1Cl,–,"inconclusive: 1.26 µM [inhibitor, single point]"
O=C(CCC(=O)Nc1ccc(F)cc1)N/N=C/c1ccccc1O,–,"inconclusive: 14.1 µM [inhibitor, partial curve]"
COc1cccc(C2CC(C(F)(F)F)n3ncc(C(=O)NCc4ccco4)c3N2)c1 (stereo unspecified),–,active: 2.82 µM
O=C(NC1CC1)c1ccc(C2SCC(=O)N2Cc2ccccc2)cc1 (stereo unspecified),–,"inconclusive: 1.12 µM [inhibitor, single point]"
OCCNc1nc(Nc2ccccc2)nc2ccccc12,–,"inconclusive: 28.2 µM [inhibitor, single point]"
O=C(CN(Cc1ccco1)C(=O)CNS(=O)(=O)c1ccc(Cl)cc1)NC1CCCCC1,inactive: -10.3%,–
CC1CCCC(NC(=O)CNC(=S)N(Cc2ccccc2)Cc2cccs2)C1C (stereo unspecified),–,"inconclusive: 35.5 µM [inhibitor, single point]"
O=C(NCc1cccnc1)c1cc(-c2ccco2)on1,–,"inconclusive: 1.41 µM [activator, partial curve]"
O=C(CSc1nnnn1-c1ccccc1)N1CCc2ccccc2C1,inactive: -1.39%,–

# A section from the list above, as a working copy:
Structure (SMILES),"activity change, negative = inhibition",Potency
Cc1onc(-c2ccccc2)c1C(=O)NNC(=S)NC(=O)/C=C/c1cccs1,–,"inconclusive: 20 µM [inhibitor, single point]"
CCn1c(SC(C)C(=O)O)nc2sc3c(c2c1=O)CCC3 (stereo unspecified),inactive: 5.9%,–
COc1cc(OC)cc(C(=O)Nc2nc(-c3ccccc3)c(-c3ccccc3)o2)c1,–,"inconclusive: 2.24 µM [inhibitor, partial curve, poor fit]"
O=C(COc1ccc(/C=N/NC(=O)C(=O)N2CCCCCC2)cc1)Nc1ccccc1Cl,–,"inconclusive: 1.26 µM [inhibitor, single point]"

# Next records follow.

Structure (SMILES),"activity change, negative = inhibition",Potency
CCCC(=O)NNc1c2ccccc2nc2ccccc12,inactive: 3.6%,–
COc1cccc(-n2c(Cc3cc(=O)[nH]c(=O)[nH]3)nnc2SCC(=O)N2CCC(C)CC2)c1,–,"inconclusive: 1.26 µM [activator, partial curve]"
CCOC(=O)c1cnc(Nc2nc3ccccc3o2)nc1CN1CCN(C)CC1,–,"inconclusive: 31.6 µM [activator, single point]"
Cc1ccc(-n2c(SCC(=O)NCc3ccco3)nc3c(sc4ccccc43)c2=O)cc1,–,"inconclusive: 35.5 µM [activator, partial curve, poor fit]"
COc1ccc2c(c1)c(=O)oc1cc(OCC(=O)N3CCCC(C)C3)ccc12 (stereo unspecified),–,"inconclusive: 35.5 µM [inhibitor, single point]"
CC(C)c1ccc(NC(=O)CCCN2C(=S)NC(C)(C)CC2C)cc1 (stereo unspecified),inactive: 1.84%,–
CC(C)n1c(O)c(N=NC(=O)c2ccccc2NS(=O)(=O)c2cccs2)c2ccccc21,–,"inconclusive: 5.62 µM [activator, partial curve]"
CSCC[C@@H](Nc1nc(-c2ccccc2)nc2c1oc1ccccc12)C(=O)O,inactive: -6.6%,–
Cc1ccccc1N1CCN(c2ncnc3scc(-c4cccs4)c23)CC1,–,"inconclusive: 35.5 µM [inhibitor, single point]"
COCc1c(C(=O)NC2CCCCCC2)oc2ccccc12,–,"inconclusive: 35.5 µM [inhibitor, single point]"
Cc1c(C(=O)NCc2cccnc2)oc2ccc(S(=O)(=O)N3CCCCC3)cc12,–,"inconclusive: 14.1 µM [inhibitor, single point]"
COc1nccnc1NS(=O)(=O)c1ccc(NC(=S)NC(=O)/C=C/c2ccccc2)cc1,–,"inconclusive: 20 µM [activator, single point]"
COc1ccc(CN(C(=O)c2cnccn2)C(C(=O)NC(C)(C)C)c2cc(OC)c(OC)c(OC)c2)cc1 (stereo unspecified),inactive: -1.25%,–
O=C1CCSc2ccc(Cl)cc2N1Cc1cccc(Cl)c1,–,active: 22.4 µM
C=CCn1cccc(/C=C/C(=O)c2ccc(C(C)(C)C)cc2)c1=S,–,active: 25.1 µM
O=C(NC1=NCCS1)c1ccccc1OCc1ccc(F)cc1,inactive: -20.7%,–
CN(c1ccccc1C(=O)N1CCN(c2ccccc2)CC1)S(C)(=O)=O,inactive: 0.505%,–
O=C(NC1CC2CCCC(C1)N2C(=O)Nc1ccccc1)c1ccncc1 (stereo unspecified),–,"inconclusive: 0.891 µM [activator, single point]"
COc1cccc(NC(=S)Nc2cc(C(=O)O)ccc2N2CC3CC(C2)c2cccc(=O)n2C3)c1 (stereo unspecified),inactive: -8.04%,–
O=C(O)C1CCCCC1C(=O)Nc1ccc(Cl)cc1Cl (stereo unspecified),inactive: 6.15%,–
CC12CCC(c3n[nH]c(=S)nc31)C2(C)C (stereo unspecified),–,"inconclusive: 12.6 µM [activator, partial curve]"
Cc1cc(F)ccc1S(=O)(=O)Nc1ccccc1C(=O)Nc1ccccc1-c1nc2ccccc2[nH]1,–,"inconclusive: 35.5 µM [inhibitor, single point]"
O=c1c2ccccc2ncn1CCOCCOc1ccc([N+](=O)[O-])cc1,–,"inconclusive: 0.501 µM [activator, full curve, poor fit]"

# Reference: PubChem BioAssay AID1688 (National Center for Advancing Translational Sciences (NCATS), 2009)
